Laboratory results published in patent publication US20020131970A1 (Scripps Research, published 2002).
These are yes or no findings as the source states them, for the method shown. Some binding calls cover weakened binding; strength is not graded here.

Protein sequences, listed by entry. Tags and fused reporters are not part of them. Residues count along the entry.
UniProt P05362, residues 28-532: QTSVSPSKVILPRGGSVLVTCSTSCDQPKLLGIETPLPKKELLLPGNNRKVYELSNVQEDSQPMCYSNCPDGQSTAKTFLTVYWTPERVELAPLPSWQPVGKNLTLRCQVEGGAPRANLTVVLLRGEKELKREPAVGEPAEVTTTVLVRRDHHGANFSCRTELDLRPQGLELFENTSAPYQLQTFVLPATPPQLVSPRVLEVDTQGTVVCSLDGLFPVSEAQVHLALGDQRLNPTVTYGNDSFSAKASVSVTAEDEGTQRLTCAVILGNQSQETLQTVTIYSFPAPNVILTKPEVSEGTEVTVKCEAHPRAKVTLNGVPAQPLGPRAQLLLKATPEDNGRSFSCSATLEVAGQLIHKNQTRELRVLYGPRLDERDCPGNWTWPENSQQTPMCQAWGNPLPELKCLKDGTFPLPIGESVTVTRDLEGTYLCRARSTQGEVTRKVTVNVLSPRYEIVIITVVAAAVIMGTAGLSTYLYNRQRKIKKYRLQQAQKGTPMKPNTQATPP

Molecular target: recombinant ICAM-1 on the surface of transfected CHO cells (UniProt P05362)
Experiment: 125I-KYG-γ3 (10-150 µg/ml) on monolayers of ICAM-1 CHO transfectants, 22 C, 45 min

Binder: KYGNNQKIVNLKEKVAQLEA (125I on the added tyrosine (IODO-GEN iodination)) [variant polypeptide γ3 with Lys-Tyr-Gly at the amino terminus (KYG-γ3), 125I-labelled]
- binding: binds
